No constants are given. Whether binding was seen depends on the method and setting. Binding can be weak; no strength is given.
T1: TpiA of S. pneumoniae in BALF of an infected mouse (S. pneumoniae D39) (UniProt P66943)
T1 sequence: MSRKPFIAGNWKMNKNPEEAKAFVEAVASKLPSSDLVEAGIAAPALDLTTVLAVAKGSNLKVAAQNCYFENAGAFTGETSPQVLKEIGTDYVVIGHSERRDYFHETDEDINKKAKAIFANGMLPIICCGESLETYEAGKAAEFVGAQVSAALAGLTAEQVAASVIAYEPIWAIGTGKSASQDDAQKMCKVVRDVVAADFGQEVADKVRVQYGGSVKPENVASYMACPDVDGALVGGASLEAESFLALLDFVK

T2: recombinant TpiA (triosephosphate isomerase of Streptococcus pneumoniae D39) (S. pneumoniae D39) (UniProt P66943)
T2 sequence: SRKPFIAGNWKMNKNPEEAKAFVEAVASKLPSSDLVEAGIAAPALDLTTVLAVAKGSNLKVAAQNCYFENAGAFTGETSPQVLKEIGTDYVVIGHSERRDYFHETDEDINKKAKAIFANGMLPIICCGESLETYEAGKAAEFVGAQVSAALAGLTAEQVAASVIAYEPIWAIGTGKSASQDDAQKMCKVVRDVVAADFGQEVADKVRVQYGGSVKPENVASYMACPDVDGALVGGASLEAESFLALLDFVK


Experiments:
[1] = biological target: T1, TpiA of S. pneumoniae in BALF of an infected mouse (S. pneumoniae D39); assay: far-Western, overlay or dot blot; BALF samples from a pneumococcus-infected mouse blotted, probed with plasminogen, plasminogen-bound bands detected (Fig. S5); only the binder purified
[2] = biological target: T2, recombinant TpiA (triosephosphate isomerase of Streptococcus pneumoniae D39) (S. pneumoniae D39); assay: far-Western, overlay or dot blot; rTpiA (200 ng) and BSA (200 ng) after SDS/PAGE on PVDF membranes; incubated 90 min with 30 µg/mL human plasminogen or laminin in TBST with blocking reagent at room temperature; detected with anti-plasminogen or anti-laminin antibodies; both purified
[3] = biological target: plasminogen from human plasma (human); assay: ELISA; host proteins and BSA coated at 1 µg per well; 1 µg per well of rTpiA added, 37 °C, 1 h, PBST; bound rTpiA detected with anti-TpiA peptide antibody; for plasminogen also with EACA added along with rTpiA; both purified

Row | Molecule | binding [1] | binding [2] | binding [3]
1 | plasminogen from human plasma | binds | binds | 
2 | recombinant TpiA (triosephosphate isomerase of Streptococcus pneumoniae D39) (enzyme, UniProt P66943 2-252) SRKPFIAGNWKMNKNPEEAKAFVEAVASKLPSSDLVEAGIAAPALDLTTVLAVAKGSNLKVAAQNCYFENAGAFTGETSPQVLKEIGTDYVVIGHSERRDYFHETDEDINKKAKAIFANGMLPIICCGESLETYEAGKAAEFVGAQVSAALAGLTAEQVAASVIAYEPIWAIGTGKSASQDDAQKMCKVVRDVVAADFGQEVADKVRVQYGGSVKPENVASYMACPDVDGALVGGASLEAESFLALLDFVK |  |  | binds
